Test results: patent publication US20030114385A1, “Viral enzyme activated prototoxophores and use of same to treat viral infections” (priority 2001, published 2003)
At least one peptide structure holds a part that was inferred or is arguable (an end, a ring closure or a residue). Square brackets hold non-standard residues; d marks the D form. Peptide text beside a SMILES is read from it. * marks the point of attachment. NH(4-NH2-anthraquinon-1-yl) = Nc1ccc(N*)c2c1C(=O)c1ccccc1C2=O; Abu = CC[C@H](N)C(=O)O

Experiments:
[1] = system: CCD18co, Det551, MCF7TDX, HepG2 and Hep3B cells; test: Cytotoxicity on cell line panel devoid of HCV NS3 protease activity; type: cell-based, human
[2] = system: poly(dA-dT)/poly(dA-dT) duplex DNA; test: DNA binding assay (UV/visible titration with duplex DNA)
Det551 or MCF7TDX cells = test: Cytotoxicity after various times of drug exposure; type: cell-based, human; conditions: for Toxicity to the cells after an exposure of 6 hr: 6 hr exposure; for Toxicity profile compared with the 5759 toxophore: cells without HCV NS3 protease activity, various exposure times

Structure (SMILES) | Toxicity compared with the 5759 toxophore after about 15 hr drug treatment [1] | Intercalation into / binding to duplex DNA ([2]; 10 or 12 μM compound titrated with duplex DNA) | UV/visible spectral change upon addition of duplex DNA ([2]; prolonged incubation (5 hr)) | UV/visible spectral change upon addition of duplex DNA ([2]; short incubation (15 min; <60 min)) | Toxicity to the cells after an exposure of 6 hr (Det551 or MCF7TDX cells) | Toxicity profile compared with the 5759 toxophore (Det551 or MCF7TDX cells)
CC(=O)N[C@@H](CC(=O)O)C(=O)N[C@@H](CCC(=O)O)C(=O)N[C@@H](C)C(=O)N[C@H](C(=O)N[C@@H](CC(C)C)C(=O)N[C@@H](CS)C(=O)N[C@@H](CO)C(=O)NCC(=O)NCC(=O)Nc1ccc(N)c2c1C(=O)c1ccccc1C2=O)C(C)C [Compound 5762, Acetyl-Asp-Glu-Ala-Val-Leu-Cys-Ser-Gly-Gly-toxin] (Ac-DEAVLCSGG-{NH(4-NH2-anthraquinon-1-yl)}) | less toxic to the cells than the 5759 toxophore |  |  |  |  | 
CC(=O)N[C@@H](CC(=O)O)C(=O)N[C@@H](CCC(=O)O)C(=O)N[C@H](C(=O)N[C@H](C(=O)N1CCC[C@H]1C(=O)N[C@@H](CS)C(=O)N[C@@H](CO)C(=O)NCC(=O)NCC(=O)Nc1ccc(N)c2c1C(=O)c1ccccc1C2=O)[C@@H](C)O)C(C)C [Compound 5763, Acetyl-Asp-Glu-Val-Thr-Pro-Cys-Ser-Gly-Gly-toxin] (Ac-DEVTPCSGG-{NH(4-NH2-anthraquinon-1-yl)}) | less toxic to the cells than the 5759 toxophore | had only a weak DNA binding interaction | a slight red shift became apparent | remained relatively unchanged | little toxicity | substantially less toxicity than the activated 5759 toxophore
CC[C@H](NC(=O)[C@H](CC(C)C)NC(=O)[C@@H](NC(=O)[C@H](C)NC(=O)[C@H](CCC(=O)O)NC(=O)[C@H](CC(=O)O)NC(C)=O)C(C)C)C(=O)N[C@@H](CO)C(=O)NCC(=O)NCC(=O)Nc1ccc(N)c2c1C(=O)c1ccccc1C2=O [Compound 5767, Acetyl-Asp-Glu-Ala-Val-Leu-ABA-Ser-Gly-Gly-toxin] (Ac-DEAVL[Abu]SGG-{NH(4-NH2-anthraquinon-1-yl)}) |  |  |  |  |  | toxic in the absence of active HCV NS3 protease activity
CC(=O)N[C@@H](CC(=O)O)C(=O)N[C@@H](CCC(=O)O)C(=O)N[C@H](C(=O)N[C@H](C(=O)N1CCC[C@H]1C(=O)N[C@@H](CS)C(=O)N[C@@H](CO)C(=O)NCC(=O)NCC(=O)Nc1ccc(N)c2c1C(=O)c1ccccc1C2=O)C(C)C)C(C)C [Compound 5761, Acetyl-Asp-Glu-Val-Val-Pro-Cys-Ser-Gly-Gly-toxin] (Ac-DEVVPCSGG-{NH(4-NH2-anthraquinon-1-yl)}) |  |  |  |  | little toxicity | substantially less toxicity than the activated 5759 toxophore
